Measured values published in US20110021367A1 (INDIAN INSTITUTE OF SCIENCE, published 2011).
These are yes or no findings as the source states them, for the method shown. Some entries that bind do so weakly or less than the wild type. For some of these results: Where a sequence is shown, tags or fusion partners need not be part of it.

The chains behind the UniProt entries cited, without tags or fusion partners. Residues count along the entry.
UniProt P9WGX5, residues 1-90: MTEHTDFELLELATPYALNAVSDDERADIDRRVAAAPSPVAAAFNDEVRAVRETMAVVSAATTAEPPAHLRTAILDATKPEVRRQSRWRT

Legend:
[1] = biological target: T1, σ^K (M. tuberculosis sigma factor K, Rv0445c) (Mycobacterium tuberculosis) (UniProt P9WGH7); experiment: co-expression in E. coli, purified complex on SDS-PAGE
T1 sequence: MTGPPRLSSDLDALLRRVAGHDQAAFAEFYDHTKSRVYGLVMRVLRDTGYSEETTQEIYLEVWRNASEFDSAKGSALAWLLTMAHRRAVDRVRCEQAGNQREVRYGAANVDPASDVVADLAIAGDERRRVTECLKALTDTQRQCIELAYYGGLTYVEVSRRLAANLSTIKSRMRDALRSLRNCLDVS

[2] = biological target: T2, RsbW (M. tuberculosis anti-σ^F factor) (Mycobacterium tuberculosis) (UniProt P9WGX7); experiment: complex from co-expression in E. coli, separated by SDS-PAGE
T2 sequence: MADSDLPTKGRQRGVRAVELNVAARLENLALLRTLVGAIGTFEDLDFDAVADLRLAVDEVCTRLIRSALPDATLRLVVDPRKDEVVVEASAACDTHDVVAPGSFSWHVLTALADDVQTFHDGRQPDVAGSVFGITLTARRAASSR

[3] = biological target: Rv0444c (M. tuberculosis anti-σ^K factor) (Mycobacterium tuberculosis) (UniProt P9WGX5); experiment: as above
[4] = biological target: T3, σ^F (M. tuberculosis sigma factor F, Rv3286c) (Mycobacterium tuberculosis) (UniProt P9WGI3); experiment: co-expression in E. coli, purified complex on SDS-PAGE
T3 sequence: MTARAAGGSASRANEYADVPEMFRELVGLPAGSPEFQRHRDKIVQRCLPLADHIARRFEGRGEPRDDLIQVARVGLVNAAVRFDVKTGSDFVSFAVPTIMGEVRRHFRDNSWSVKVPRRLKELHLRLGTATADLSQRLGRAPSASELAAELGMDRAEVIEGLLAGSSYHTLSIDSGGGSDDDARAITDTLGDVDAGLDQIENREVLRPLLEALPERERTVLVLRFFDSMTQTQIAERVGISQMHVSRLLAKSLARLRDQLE

In the case of “Rv0444c (M. tuberculosis anti-σ^K factor) (from UniProt P9WGX5 1-90)”, the binding [1] is reported as “binds”.

B1: σ^F (M. tuberculosis sigma factor F, Rv3286c) (protein)
chain: MTARAAGGSASRANEYADVPEMFRELVGLPAGSPEFQRHRDKIVQRCLPLADHIARRFEGRGEPRDDLIQVARVGLVNAAVRFDVKTGSDFVSFAVPTIMGEVRRHFRDNSWSVKVPRRLKELHLRLGTATADLSQRLGRAPSASELAAELGMDRAEVIEGLLAGSSYHTLSIDSGGGSDDDARAITDTLGDVDAGLDQIENREVLRPLLEALPERERTVLVLRFFDSMTQTQIAERVGISQMHVSRLLAKSLARLRDQLE
In the case of B1, the binding [2] is reported as “binds”.

B2: σ^K (M. tuberculosis sigma factor K, Rv0445c) (protein)
chain: MTGPPRLSSDLDALLRRVAGHDQAAFAEFYDHTKSRVYGLVMRVLRDTGYSEETTQEIYLEVWRNASEFDSAKGSALAWLLTMAHRRAVDRVRCEQAGNQREVRYGAANVDPASDVVADLAIAGDERRRVTECLKALTDTQRQCIELAYYGGLTYVEVSRRLAANLSTIKSRMRDALRSLRNCLDVS
In the case of B2, the binding [3] is reported as “binds”.

B3: RsbW (M. tuberculosis anti-σ^F factor) (protein)
chain: MADSDLPTKGRQRGVRAVELNVAARLENLALLRTLVGAIGTFEDLDFDAVADLRLAVDEVCTRLIRSALPDATLRLVVDPRKDEVVVEASAACDTHDVVAPGSFSWHVLTALADDVQTFHDGRQPDVAGSVFGITLTARRAASSR
In the case of B3, the binding [4] is reported as “binds”.
